{
  "source": "patent EP2832344A1",
  "about": "“COMPOSITION, AND EXTERNAL PREPARATION FOR THE SKIN OR FUNCTIONAL FOOD EACH CONTAINING SAID COMPOSITION” (FUJI-FILM Corporation, priority 2012, dated 2013)",
  "test": "Storage stability of hydroxystilbenes (residual amount by HPLC)",
  "assay_type": "physicochemical",
  "settings": "pH 8, 43 days at room temperature; statement in words",
  "procedure": "Various hydroxystilbenes shown in the following Table 1 were dissolved in ethanol, thereby preparing a 1% solution. The solution was stirred together with PEG-60 hydrogenated castor oil which was in an amount 10 times the amount of the solution with respect to 1 part of the ethanol solution. Thereafter, the resultant was diluted by 100-fold with a citric acid buffer solution, thereby preparing a sample.\npH of the sample prepared as above was regulated to be 8, and the sample was left as is for a month and a half (43 days) at room temperature. Thereafter, by means of HPLC, a residual amount of various hydroxystilbenes in each sample was determined. Analysis conditions for HPLC are as follows.\n• Column: C18 5 µm, 4.6 mm x 250 mm • Flow rate: 1 ml/min • Column temperature: 40°C • Detection wavelength: 310 nm • Developing solution: acetonitrile/water = 20/80 (volume ratio, containing 0.1% by volume of acetic acid and 0.1% by volume of triethanolamine) [Table 1]",
  "note": "At least one compound was matched to its structure with a doubt left.",
  "data": [
    {"smiles": "COc1cc(/C=C/c2ccc(O)cc2)cc(OC)c1", "note": "[Pterostilbene, trans-1-(3,5-Diemthoxyphenyl)-2-(4-hydroxyphenyl)ethylene]", "values": [
      {"measurement": "decomposition over time", "value": "practically not decomposed over time"}
    ]}
  ]
}
